Some entries share one result that the patent states for a list of compounds.
System: S. aureus WCUH29, S. pneumoniae 1629, H. influenzae ATCC 51907, M. catarrhalis Ravisio
Assay: MIC of further test compounds against an alternative selection of organisms
Assay type: cell-based
Conditions: versus all these organisms (alternative panel of 4 strains)
Method: The MIC […] of further test compounds against an alternative selection of organisms was determined: S. aureus WCUH29, S. pneumoniae 1629, H. influenzae ATCC 51907, M. catarrhalis Ravisio.

(1S,3S,4S)-3-Hydroxy-4-[(6-oxo-6,7-dihydro-5H-8-thia-1,2,5-triaza-naphthalen-3-ylmethyl)-amino]-cyclohexanecarboxylic acid (6-methoxy-[1,5]naphthyridin-4-yl)-amide dihydrochloride and (1R,3R,4R)-3-hydroxy-4-[6-oxo-6,7-dihydro-5H-8-thia-1,2,5-triaza-naphthalen-3-ylmethyl)-amino]-cyclohexanecarboxylic acid (6-methoxy-[1,5]naphthyridin-4-yl)-amide dihydrochloride [Example 357]
MIC: ≤ 4 µg/mL

Source: US7141564B2, “Nitrogen-containing bicyclic heterocycles for use as antibacterials” (priority 2001, dated 2006)
